Record: PubChem BioAssay AID743121 (NCATS, 2013)
This is one part, drawn at random, of about 26,000 reagents tested. Of all reagents, 167 (0.63%) got an active call. 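Calls are per gene from RSA p-values that are not deposited; an individual active-marked siRNA can sensitise only weakly.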 Reagents against one gene are numbered here.

Aim: 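Knock-downs that sensitise breast cancer cells to camptothecin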 (primary screen)
Cells: MDA-MB-231 cells, a human breast cancer line
Knock-down reagent: single siRNA against human genes, 20 nM siRNA (0.8 pmol per well)
Timing: 120 h (drug added 48 h after transfection, read 72 h later)
Challenge: camptothecin 20 nM (about EC30) for 72 h; vehicle 0.1% DMSO in parallel plates
Read-out: 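CellTiter-Glo ATP signal, scaled to control siRNA as percent viability; sensitisation given as log2 of untreated divided by camptothecin-treated viability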
Direction: log2 vehicle/camptothecin viability: higher = stronger sensitisation to camptothecin; viability with camptothecin and viability without drug: higher = more viable cells
Hit rule: 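Each gene scored by redundant siRNA activity (RSA) over its individual siRNA ratios; a gene is called active at p < 0.001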

| gene | reagent no. | log2 vehicle/camptothecin viability | viability with camptothecin (% of control) | viability without drug (% of control) | call |
| --- | --- | --- | --- | --- | --- |
| LEFTY2 (GeneID 7044) | 1 | -0.291 | 54.6 | 44.7 | inactive |
| LEFTY2 (GeneID 7044) | 2 | 0.365 | 80.3 | 103 | inactive |
| LEFTY2 (GeneID 7044) | 3 | -0.257 | 90.7 | 75.9 | inactive |
| KCNK6 (GeneID 9424) | 1 | -0.0161 | 110 | 109 | inactive |
| KCNK6 (GeneID 9424) | 2 | -0.177 | 63.7 | 56.3 | inactive |
| KCNK6 (GeneID 9424) | 3 | 0.276 | 74.2 | 89.8 | inactive |
| SCYL2 (GeneID 55681) | 1 | 0.275 | 81.9 | 99.2 | inactive |
| SCYL2 (GeneID 55681) | 2 | 0.308 | 57.3 | 70.9 | inactive |
| SCYL2 (GeneID 55681) | 3 | -0.056 | 90.7 | 87.3 | inactive |
| SCYL2 (GeneID 55681) | 4 | -0.378 | 75.8 | 58.3 | inactive |
| SCYL2 (GeneID 55681) | 5 | -0.521 | 103 | 71.9 | inactive |
| KLK6 (GeneID 5653) | 1 | -0.131 | 93.2 | 85.1 | inactive |
| KLK6 (GeneID 5653) | 2 | -0.234 | 101 | 86.1 | inactive |
| KLK6 (GeneID 5653) | 3 | -0.336 | 72.3 | 57.3 | inactive |

5 entries already listed, arranged by “log2 vehicle/camptothecin viability”, highest first:
| gene | reagent no. | log2 vehicle/camptothecin viability | viability with camptothecin (% of control) | viability without drug (% of control) | call |
| --- | --- | --- | --- | --- | --- |
| LEFTY2 (GeneID 7044) | 2 | 0.365 | 80.3 | 103 | inactive |
| KCNK6 (GeneID 9424) | 1 | -0.0161 | 110 | 109 | inactive |
| KCNK6 (GeneID 9424) | 2 | -0.177 | 63.7 | 56.3 | inactive |
| LEFTY2 (GeneID 7044) | 3 | -0.257 | 90.7 | 75.9 | inactive |
| LEFTY2 (GeneID 7044) | 1 | -0.291 | 54.6 | 44.7 | inactive |

Further results:
| gene | reagent no. | log2 vehicle/camptothecin viability | viability with camptothecin (% of control) | viability without drug (% of control) | call |
| --- | --- | --- | --- | --- | --- |
| EEF1A1 (GeneID 1915) | 1 | -0.176 | 92.8 | 82.1 | inactive |
| EEF1A1 (GeneID 1915) | 2 | -0.156 | 85.6 | 76.8 | inactive |
| EEF1A1 (GeneID 1915) | 3 | -0.264 | 34.8 | 29 | inactive |
| EEF1A1 (GeneID 1915) | 4 | -0.27 | 94.7 | 78.5 | inactive |
| PKP1 (GeneID 5317) | 1 | -0.00335 | 84.5 | 84.3 | inactive |
| PKP1 (GeneID 5317) | 2 | -0.349 | 71.1 | 55.8 | inactive |
| PKP1 (GeneID 5317) | 3 | -0.243 | 72.9 | 61.6 | inactive |
| PKP1 (GeneID 5317) | 4 | -0.559 | 90.4 | 61.4 | inactive |
| TCN2 (GeneID 6948) | 1 | 0.573 | 7.75 | 11.5 | inactive |
| TCN2 (GeneID 6948) | 2 | 0.0127 | 81.1 | 81.8 | inactive |
| TCN2 (GeneID 6948) | 3 | 0.000157 | 69.7 | 69.7 | inactive |
| TCN2 (GeneID 6948) | 4 | -0.048 | 93 | 89.9 | inactive |
| FLCN (GeneID 201163) | 1 | -0.416 | 90.4 | 67.7 | inactive |
| FLCN (GeneID 201163) | 2 | 0.00275 | 50 | 50 | inactive |
| FLCN (GeneID 201163) | 3 | -0.273 | 78.5 | 65 | inactive |
| FLCN (GeneID 201163) | 4 | -0.382 | 47.4 | 36.4 | inactive |
